Source: PMC8924000
Results are given in words; binding and its absence hold for the method and conditions named. Binding seen in cells or lysates may run through a third protein. Here binding means that the protein was enriched with, or labelled near, the bait; the list need not be complete. Where a sequence is shown, tags or fusion partners need not be part of it.

The chains behind the UniProt entries cited, without tags or fusion partners.
UniProt P67809: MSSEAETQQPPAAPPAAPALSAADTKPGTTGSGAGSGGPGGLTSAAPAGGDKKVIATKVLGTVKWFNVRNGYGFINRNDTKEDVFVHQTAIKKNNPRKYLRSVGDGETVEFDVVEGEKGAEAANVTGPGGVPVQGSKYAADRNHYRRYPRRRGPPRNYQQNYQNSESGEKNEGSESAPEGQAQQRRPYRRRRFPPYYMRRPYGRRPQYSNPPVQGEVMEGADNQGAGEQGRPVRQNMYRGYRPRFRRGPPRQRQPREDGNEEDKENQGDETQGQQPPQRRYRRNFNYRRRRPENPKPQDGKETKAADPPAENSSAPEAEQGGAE

Biological target: T1, Flag-GSDME (gasdermin E, wild type) (human) (UniProt O60443)
T1 sequence: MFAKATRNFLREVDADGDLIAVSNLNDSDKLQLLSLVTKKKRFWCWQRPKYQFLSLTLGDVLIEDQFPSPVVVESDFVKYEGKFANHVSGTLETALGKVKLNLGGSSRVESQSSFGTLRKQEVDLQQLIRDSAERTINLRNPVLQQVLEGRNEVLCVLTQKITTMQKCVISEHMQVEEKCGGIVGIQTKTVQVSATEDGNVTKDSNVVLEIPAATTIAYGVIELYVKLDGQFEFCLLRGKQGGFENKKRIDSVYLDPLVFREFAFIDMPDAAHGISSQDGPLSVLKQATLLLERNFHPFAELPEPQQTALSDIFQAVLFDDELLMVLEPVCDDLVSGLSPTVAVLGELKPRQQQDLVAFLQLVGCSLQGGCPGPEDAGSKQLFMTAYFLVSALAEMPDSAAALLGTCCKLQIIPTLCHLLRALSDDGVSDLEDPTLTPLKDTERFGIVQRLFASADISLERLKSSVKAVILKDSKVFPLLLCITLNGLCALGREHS
Assay: affinity purification with mass spectrometry; GSDME-SG/Flag-GSDME AsPC-1 cells treated with trypsin/chymotrypsin for 48 h; cell lysates immunoprecipitated with anti-Flag (anti-IgG as control), mass spectrometry

Y-box-binding protein 1 (YBX1), endogenous (from UniProt P67809 1-324)
binding: binds
